We go through 5 molecules from PMC4434539.

Results are given in words; binding and its absence hold for the method and conditions named. In cells and extracts the contact can be indirect. Here binding means that the protein was enriched with, or labelled near, the bait; the list need not be complete. For some assays here: No binding means not detected with the bait. Tags and fused reporters may be left off the sequences shown.

Test [1] concerns the target T1, Mic27-EGFP (S. cerevisiae) (UniProt P50945).
T1 sequence: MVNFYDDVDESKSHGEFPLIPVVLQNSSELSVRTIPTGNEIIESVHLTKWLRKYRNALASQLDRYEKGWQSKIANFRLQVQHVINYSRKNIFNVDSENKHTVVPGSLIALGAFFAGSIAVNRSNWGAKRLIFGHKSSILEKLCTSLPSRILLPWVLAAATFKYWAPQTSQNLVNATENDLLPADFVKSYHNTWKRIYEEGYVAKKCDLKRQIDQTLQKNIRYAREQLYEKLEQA
The test is described as follows: affinity purification with mass spectrometry; Mic27-EGFP purified with α-GFP MicroBeads from cross-linked extracts of ∆mic60 ∆crd1 cells (no cardiolipin synthesis); 1 mM DSP, 1% digitonin; LC-MS/MS.

Test [2] addresses T1, Mic27-EGFP (S. cerevisiae). Kind of test: affinity purification with mass spectrometry; Mic27-EGFP or Mic60-EGFP purified with α-GFP MicroBeads from lysates of wild type cells (Mic27-EGFP also from wild type rho^0, ∆crd1, ∆mic60 and ∆mic19 cells; Mic60-EGFP also from ∆mic19 cells); lysate cross-linked with 1 mM DSP, 1% digitonin; on-bead trypsin digestion, LC-MS/MS.
The target of test [3] is T2, Mic19-FLAG (S. cerevisiae) (UniProt P43594).
T2 sequence: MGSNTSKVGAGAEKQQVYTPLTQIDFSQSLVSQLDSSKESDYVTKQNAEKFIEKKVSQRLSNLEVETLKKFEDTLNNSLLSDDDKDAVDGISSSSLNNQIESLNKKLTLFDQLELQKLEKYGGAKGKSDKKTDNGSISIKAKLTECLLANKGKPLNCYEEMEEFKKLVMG
The test is described as follows: affinity purification with mass spectrometry; ∆MICOS cells expressing Mic60-FLAG and untagged Mic19, or Mic19-FLAG and untagged Mic60, from their endogenous loci; lysate cross-linked with 1 mM DSP, 1% digitonin; α-FLAG antibody and protein G beads; on-bead trypsin digestion, LC-MS/MS.

Test [4] concerns the target T3, Mic60-FLAG (S. cerevisiae) (UniProt P36112).
T3 sequence: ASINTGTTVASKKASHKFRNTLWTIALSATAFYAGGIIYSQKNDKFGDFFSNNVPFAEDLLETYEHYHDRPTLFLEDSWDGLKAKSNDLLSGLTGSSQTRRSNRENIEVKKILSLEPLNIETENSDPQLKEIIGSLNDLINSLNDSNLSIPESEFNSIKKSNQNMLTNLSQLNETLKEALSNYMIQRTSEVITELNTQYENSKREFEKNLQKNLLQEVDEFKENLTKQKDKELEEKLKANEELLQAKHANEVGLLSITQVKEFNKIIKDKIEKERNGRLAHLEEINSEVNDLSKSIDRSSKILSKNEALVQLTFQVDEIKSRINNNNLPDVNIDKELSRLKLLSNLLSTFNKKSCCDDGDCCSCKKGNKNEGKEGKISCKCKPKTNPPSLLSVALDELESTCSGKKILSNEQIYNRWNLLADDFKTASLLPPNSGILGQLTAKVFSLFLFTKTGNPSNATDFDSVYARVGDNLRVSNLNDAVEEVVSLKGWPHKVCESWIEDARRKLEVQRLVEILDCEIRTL
The test is described as above.

In test [5] the target is T1, Mic27-EGFP (S. cerevisiae). Kind of test: affinity purification with mass spectrometry; Mic27-EGFP purified with α-GFP MicroBeads from lysate of ∆mic60 rho^0 cells (no mtDNA); cross-linked with 1 mM DSP, 1% digitonin; LC-MS/MS.

B1: Mic26 (protein, UniProt P50087 1-233)
chain: MTKDFYRQLDPVEEKIVPPENAIVISSEAKEATVNEKEAKQGVLSQRVMKYIGENELVDGISVRDPDYLKRFFNERRKQFSAKWDKVTNKIDDIAGRYYAREESFTSTIASLHTDPNERLIPGLLSILVASMTGSVLARRRTWLLRATMPIILGSCCFAYAMPTTFRNTMGLIHNLEMNTFPHFTERQDRVWKETKRLSTASVQYYYDAKKWLNKDVEKTGNAIKNWTGVNVK
As for B1, the binding entry in test [1] is given as “no binding (only in ∆mic60 ∆crd1 cells)”; in test [2] it was “binds”.

B2: Mic60 (protein, UniProt P36112 18-540)
chain: T3 sequence
Take B2: the binding entry in test [3] is recorded as “binds”.

B3: Mic19 (protein, UniProt P43594 1-170)
chain: T2 sequence
Regarding B3, the binding result in test [4] and in test [2] was “binds” each time.

B4: Mic12 (protein, UniProt P38341 1-106)
chain: MSKLGPLARSVKWTLSVGVIGSVFYLYRYSNNGYFYDHDATWLKQDHQVQDLVDRKEVVPGETRNRKLVVTDDGTAWSRTMGESIKDIWNEQIRNSVDWIYSWGKN
B4: the binding result in test [1] is “no binding (only in ∆mic60 ∆crd1 cells)”; in test [5] it was “no binding (only in ∆mic60 rho^0 cells)”; in test [2] it was “binds”.

B5: Mic10 (protein, UniProt Q96VH5 1-97)
chain: MSEQAQTQQPAKSTPSKDSNKNGSSVSTILDTKWDIVLSNMLVKTAMGFGVGVFTSVLFFKRRAFPVWLGIGFGVGRGYAEGDAIFRSSAGLRSSKV
On to B5, for which the binding entry is on record as “no binding (only in ∆mic60 ∆crd1 cells)” in test [1], “no binding (only in ∆mic60 rho^0 cells)” in test [5] and “binds” in test [2].
